Consider 1 molecule from paper PMC2791861.

The test concerns the target T1, Myc-MLX (UniProt Q9UH92).
T1 sequence: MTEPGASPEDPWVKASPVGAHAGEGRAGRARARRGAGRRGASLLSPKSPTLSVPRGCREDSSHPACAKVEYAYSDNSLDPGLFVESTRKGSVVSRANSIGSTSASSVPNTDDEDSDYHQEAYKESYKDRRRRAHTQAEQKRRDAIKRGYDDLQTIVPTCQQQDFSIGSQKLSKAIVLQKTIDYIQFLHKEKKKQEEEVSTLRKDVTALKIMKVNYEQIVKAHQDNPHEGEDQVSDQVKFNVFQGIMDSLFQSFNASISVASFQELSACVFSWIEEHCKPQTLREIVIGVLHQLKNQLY
Briefly: native gel or EMSA; 33P-end-labelled Txnip promoter probes (CAT/ChoRE-a or iCAT/ChoRE-b) mixed with 5 ug whole cell extract of HeLa cells over-expressing HA-MondoA and Myc-MLX, room temperature 30 min; 0.5 ug anti-HA, anti-Myc or anti-MLX antibody for inhibition or super-shift of the ChoRE band; 4% polyacrylamide gel. A general note: In EMSA bound probe runs differently from free probe, usually more slowly.

Results are given in words; binding and its absence hold for the method and conditions named. Some results given as binding are weak or reduced against the parent protein; the word gives no strength. Sequences can lack the tags named with a protein.

B1: HA-MondoA (protein, UniProt Q9HAP2 1-919)
chain: MAADVFMCSPRRPRSRGRQVLLKPQVSEDDDDSDTDEPSPPPASGAATPARAHASAAPPPPRAGPGREEPPRRQQIIHSGHFMVSSPHREHPPKKGYDFDTVNKQTCQTYSFGKTSSCHLSIDASLTKLFECMTLAYSGKLVSPKWKNFKGLKLQWRDKIRLNNAIWRAWYMQYLEKRKNPVCHFVTPLDGSVDVDEHRRPEAITTEGKYWKSRIEIVIREYHKWRTYFKKRLQQHKDEDLSSLVQDDDMLYWHKHGDGWKTPVPMEEDPLLDTDMLMSEFSDTLFSTLSSHQPVAWPNPREIAHLGNADMIQPGLIPLQPNLDFMDTFEPFQDLFSSSRSIFGSMLPASASAPVPDPNNPPAQESILPTTALPTVSLPDSLIAPPTAPSLAHMDEQGCEHTSRTEDPFIQPTDFGPSEPPLSVPQPFLPVFTMPLLSPSPAPPPISPVLPLVPPPATALNPPAPPTFHQPQKFAGVNKAPSVITHTASATLTHDAPATTFSQSQGLVITTHHPAPSAAPCGLALSPVTRPPQPRLTFVHPKPVSLTGGRPKQPHKIVPAPKPEPVSLVLKNARIAPAAFSGQPQAVIMTSGPLKREGMLASTVSQSNVVIAPAAIARAPGVPEFHSSILVTDLGHGTSSPPAPVSRLFPSTAQDPLGKGEQVPLHGGSPQVTVTGPSRDCPNSGQASPCASEQSPSPQSPQNNCSGKSDPKNVAALKNRQMKHISAEQKRRFNIKMCFDMLNSLISNNSKLTSHAITLQKTVEYITKLQQERGQMQEEARRLREEIEELNATIISCQQLLPATGVPVTRRQFDHMKDMFDEYVKTRTLQNWKFWIFSIIIKPLFESFKGMVSTSSLEELHRTALSWLDQHCSLPILRPMVLSTLRQLSTSTSILTDPAQLPEQASKAVTRIGKRLGES
Regarding B1, the binding result is “binds”.
